Source: the supplement of paper PMC10338343
± gives the standard deviation. The list shows a part of the results, in another mix than the full data. Many of these values have a large error. The list shows a part of the results.

Columns and labels:
[1] = system: MIWI (PIWIL1) piRISC loaded with L1MC piRNA (30 nt); test: pre-steady-state target cleavage rate (min^-1); higher = faster piRNA-guided slicing of the target; conditions: guide: L1MC piRNA 5'p-UAACUAAAUACUAUGCAAGCUGUAGGUCCU
Outline: (§1)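 The method was Cleave-'n-Seq, in which uncleaved targets from a transcribed, DNA-blocked target RNA library were sequenced after exposure to active affinity-purified piRISC carrying one synthetic guide, with or without GTSF1 partner protein. Reactions contained 0.1 nM library, 1 nM piRISC and, where present, 500 nM GTSF1 in HEPES–potassium acetate buffer at 33 °C for 0–8 or 0–960 min. Reads were normalised to depth and to weakly complementary targets, three trials were pooled, and k3 was capped at 0.0001 min^-1. The pre-steady-state cleavage rate came from a burst-and-steady-state fit.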

[2] = system: EfPiwi piRISC loaded with L1MC piRNA (26 nt); test: pre-steady-state target cleavage rate (min^-1); guide: L1MC piRNA 5'p-UAACUAAAUACUAUGCAAGCUGUAGG; MIWI and MILI are mouse PIWI proteins and EfPiwi is from a freshwater sponge; tags in brackets are library labels; higher = faster piRNA-guided slicing of the target
Outline: as §1

[3] = auxiliary factor: none (no GTSF1)
[4] = auxiliary factor: none (no Gtsf1)
[5] = auxiliary factor: 500 nM Ephydatia muelleri Gtsf1
[6] = auxiliary factor: 500 nM mouse GTSF1

Sequence	pre-steady-state target cleavage rate [1, 3]	pre-steady-state target cleavage rate [2, 4]	pre-steady-state target cleavage rate [2, 5]	pre-steady-state target cleavage rate [1, 6]
UCCUGGAUGUCGAACGAUGGUAUUUAGUUA	0.000465 ± 0.012	0.00016 ± 0.037	–	–
UCCUGGAUGUCGAACGUUACAAUUUAGUUA	0.000324 ± 0.016	–	< 0.0001	–
UCCUGGAUCAGCUACCAUAGUAUUUUCAAA	0.000853 ± 0.007	–	0.000188 ± 0.019	–
UCCUGGAUGUCGUUGCGAUAGUAUUUAGUUA	0.000409 ± 0.014	–	0.000245 ± 0.014	–
UCCUGGAUCAGCUUGCAUACAAUUUUCAAA	0.000255 ± 0.013	–	0.00029 ± 0.014	–
UCCUGGAUGUCGAACGAAAGUAUUUAGUAA	0.000238 ± 0.023	0.000114 ± 0.046	–	–
UCCUGGAUGUCGAAGCAUAGAAUUUAGUUA	0.000474 ± 0.0097	–	0.000116 ± 0.031	–
UCCUGCUACUCCUUGCAUAGUAUUUAGAAA	0.00232 ± 0.0031	–	0.00264 ± 0.002	–
UCCUGGAUGUGCUUGCAUAGUAUUUAUUA	0.0025 ± 0.0028	–	0.00271 ± 0.0022	–
UCCUGGAACAGGAAGCAUAGUAUUUAGUAA	0.00178 ± 0.005	–	0.00114 ± 0.0045	–
UCCUCCUACAGCUUGCAUAGUAUUUUCAUA	0.00298 ± 0.0035	–	0.00665 ± 0.0037	–
UCCUGGAUCAGCUUGCAUAGAUAUUUAGUUA	0.00127 ± 0.0043	–	0.00226 ± 0.0051	–
UCCUGGAUGUCGAAGGAUAGUUUUUAGUUA	–	–	< 0.0001	0.000172 ± 0.029
UCCUGGAUGUCGAAGCAUAGUAUUAAGUUA	–	–	0.000311 ± 0.0096	0.00119 ± 0.0098
UCCUGGAUCAGCUUGCAUAGUUAUUUCAAA	0.00026 ± 0.0088	–	0.0005 ± 0.0078	–
UCCUGGAACAGCUUGCACUAGUAUUUAGUUA	0.0021 ± 0.0031	–	0.00312 ± 0.0026	–
UCCUGGAUGUCCUUGCUUACUAUUUAGUUA	0.000937 ± 0.0072	–	0.00119 ± 0.0085	–
UCCUGGAUGUGCUUGCAUAGUCAUUUAGUUA	0.00295 ± 0.004	–	0.000435 ± 0.0075	–
UCCUGGAUGUCGAGGCAUAGUAUUUAGUUA	0.00189 ± 0.0047	–	0.00166 ± 0.0049	–
UCCUGGAUGUGGUUGGAUAGUAUUUAGUUA	0.00189 ± 0.0064	–	0.000268 ± 0.033	–
UCCUGGAUCAGGAAGCAUAGUAUUUACAAA	0.000783 ± 0.0073	0.000104 ± 0.057	–	–
UCCUCCUACAGCUUCGUUAGUAUUUAGUAA	0.00081 ± 0.0051	0.000406 ± 0.01	–	–
UCCUGGUACAGCUUGCAUAGUCAUUUAGUUA	0.00318 ± 0.0035	–	0.00084 ± 0.0053	–
UCCUGGAUGUCGUUGCAAUAGUAUUUAGUUA	0.00119 ± 0.0053	0.000287 ± 0.026	–	–

Not a retest: entries from further up.
Sequence	pre-steady-state target cleavage rate [1, 3]	pre-steady-state target cleavage rate [2, 4]	pre-steady-state target cleavage rate [2, 5]	pre-steady-state target cleavage rate [1, 6]
UCCUGGAUCAGCUACCAUAGUAUUUUCAAA	0.000853 ± 0.007	–	0.000188 ± 0.019	–
UCCUGGAUGUCGUUGCGAUAGUAUUUAGUUA	0.000409 ± 0.014	–	0.000245 ± 0.014	–

The list goes on:

Sequence	pre-steady-state target cleavage rate [1, 3]	pre-steady-state target cleavage rate [2, 4]	pre-steady-state target cleavage rate [2, 5]	pre-steady-state target cleavage rate [1, 6]
UCCUGGAUGUCGUUGCCUAGUAUUUAGUUA	0.00141 ± 0.0052	–	0.00172 ± 0.0037	–
UCCUGGAUGUCGAACGUAAGUAUUUAGUCA	0.000208 ± 0.018	< 0.0001	–	–
UCCUGGAUGUCGAUGUAUAGUAUUUAGUUA	0.00202 ± 0.0039	0.000499 ± 0.017	–	–
UCCUGGAUGUCCUUGCACUAGUAUUUAGUUA	0.000802 ± 0.0085	–	0.00173 ± 0.0065	–
UCCUGGAUGUCGAACCAUAGUAUUUAGGUA	0.000232 ± 0.02	–	< 0.0001	–
UCCUGGAUGUGCUUGCAUACAAUUUAGUUA	0.00222 ± 0.0036	–	0.00179 ± 0.0069	–
UCCUGGAUGUCGAACGUAUGUAUAUAGUAA	0.000238 ± 0.021	0.000106 ± 0.052	–	–
UCCUGGAUCAGGAUGCAUAGUAUUUUCAAA	0.000637 ± 0.0069	–	0.00047 ± 0.0059	–
UCCUGGAUGAGGUUGCAUAGUUUUUAGUUA	0.00277 ± 0.0039	–	0.00166 ± 0.0024	–
UCCUGCUACAGCUUGCAUAGGUAUUUAGUUA	0.00125 ± 0.0062	–	0.00304 ± 0.0019	–
UCCUGGAUGUCGAACCAAAGUAAUUAGUUA	0.000166 ± 0.014	0.000255 ± 0.019	–	–
UCCUGGAUGUCGAAGCAUUCUAUUUAGUUA	0.000588 ± 0.0058	–	0.00031 ± 0.0085	–
UCCUGGAUGUCCUUGCAUACUUUUUAGUUA	0.00172 ± 0.005	–	0.00098 ± 0.0067	–
UCCUGGAUGUCCUUGGAUACUAUUUAGUUA	0.000823 ± 0.0097	–	0.000195 ± 0.019	–
UCCUGGAUCAGCUUCCAUAGUAAUUAGUUA	0.000855 ± 0.0081	–	0.000784 ± 0.0059	–
UCCUGGAUGAGGUAGCAUAGUAUUUAGUUA	0.00215 ± 0.0029	–	0.00309 ± 0.0041	–
UCCUGGAUGUCGAACGUUAGUAUAAAGUUA	0.000147 ± 0.037	–	0.00026 ± 0.021	–
UCCUGGUACACCAUGCAUAGUAUUUAGUUA	0.00202 ± 0.0029	–	0.00335 ± 0.0031	–
UCCUGGAUGUCGAAGCAUUGUAUAUAGUUA	0.000158 ± 0.033	–	0.000432 ± 0.011	–
UCCUGGAUGUCGAACGAUACAAUUUAGUUA	0.000266 ± 0.025	–	0.000262 ± 0.024	–
UCCUGGAUGUCGAACGUAAUUAUUUAGUUA	0.000173 ± 0.01	–	< 0.0001	–
UCCUGGAUGUCGAAGCAUAGUAUUUCGUUA	0.00127 ± 0.0044	–	0.000398 ± 0.0089	–
UCCUGGAUGUCGAUGCAUAGUAUUAAGUUA	0.000813 ± 0.0067	–	0.000607 ± 0.0056	–
UCCUGGAUGAGCUUGCUAUCAUAAAUCAAA [g15:g21:cont:t1A]	0.000352 ± 0.012	–	0.000172 ± 0.018	–
